Publication PMC4370678
No constants are given. Whether binding was seen depends on the method and setting. Binding seen in cells or lysates may run through a third protein. Some entries that bind do so weakly or less than the wild type. Where a sequence is shown, tags or fusion partners need not be part of it.

Amino acid sequences for entries named in this document (tags omitted).
UniProt Q15691: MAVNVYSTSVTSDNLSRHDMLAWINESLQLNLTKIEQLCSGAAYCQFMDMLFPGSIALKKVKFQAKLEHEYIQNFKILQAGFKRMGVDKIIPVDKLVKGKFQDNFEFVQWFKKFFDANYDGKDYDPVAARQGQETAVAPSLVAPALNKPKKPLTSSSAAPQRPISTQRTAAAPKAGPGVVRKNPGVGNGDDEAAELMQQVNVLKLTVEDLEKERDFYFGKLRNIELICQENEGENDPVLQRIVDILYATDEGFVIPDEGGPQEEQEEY

What follows are substances tested against full-length human myc-tagged AIPL1 (myc-AIPL1) (human) (UniProt Q9NZN9) (assay: co-IP; SK-N-SH cells co-transfected with myc-AIPL1 and EB-GFP; lysis in 1% n-dodecyl β-D-maltoside, 5 mM EDTA, pH 8.0, in PBS at 4°C; immunoprecipitation with anti-c-myc 9E10; blots with anti-GFP and anti-AIPL1).

binding, binds:
full-length human GFP-tagged EB2 (EB2-GFP) (from UniProt Q15555 1-327)
full-length human GFP-tagged EB3 (EB3-GFP) (from UniProt Q9UPY8 1-281)
full-length human GFP-tagged EB1 (EB1-GFP) (from UniProt Q15691 1-268)
